Patent US10793566B2, “Bruton's tyrosine kinase inhibitors” (Zibo Biopolar Changsheng Pharmaceutical Co. Ltd., priority 2016, dated 2020)
At least one structure is not confirmed: it was looked up by name or label, or the drawing left a doubt.

Chains of the proteins cited; added tags and fusions are not shown. Lines headed by an entry give the natural chain unless they say otherwise; changes in a name come on top.
UniProt Q06187: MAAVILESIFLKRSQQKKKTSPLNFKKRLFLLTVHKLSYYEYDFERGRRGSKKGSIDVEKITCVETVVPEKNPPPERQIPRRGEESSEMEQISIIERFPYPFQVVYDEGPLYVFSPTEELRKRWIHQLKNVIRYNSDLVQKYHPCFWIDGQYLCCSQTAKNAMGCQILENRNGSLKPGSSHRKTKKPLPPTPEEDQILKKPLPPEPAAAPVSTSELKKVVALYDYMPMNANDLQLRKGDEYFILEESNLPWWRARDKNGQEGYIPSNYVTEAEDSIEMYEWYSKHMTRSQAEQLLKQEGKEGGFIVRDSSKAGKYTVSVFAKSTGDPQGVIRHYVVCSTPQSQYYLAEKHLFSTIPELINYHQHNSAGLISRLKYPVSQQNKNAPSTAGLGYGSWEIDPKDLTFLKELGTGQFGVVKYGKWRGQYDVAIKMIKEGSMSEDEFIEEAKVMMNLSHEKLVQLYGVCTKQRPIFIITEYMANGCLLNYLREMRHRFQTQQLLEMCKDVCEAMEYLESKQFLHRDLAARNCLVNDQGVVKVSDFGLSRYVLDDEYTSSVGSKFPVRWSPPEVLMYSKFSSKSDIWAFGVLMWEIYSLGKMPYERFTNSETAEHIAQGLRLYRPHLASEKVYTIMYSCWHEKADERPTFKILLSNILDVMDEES

Biological target: BTK (Homo sapiens (Human), UniProt Q06187)
Experiment: Btk occupancy in cellular assays (PCI-33380 labeling)
Type: cell-based
Settings: Jeko-1 cells, 1.5 h pre-incubation, PCI-33380 probe
Method: Btk Occupancy in Cellular Assays
For PCI-33380 labeling of human B cells, 10^6 Jeko-1 cells were pre-incubated with compound for 1.5 h before labeling. Then cells were treated with PCI-33380 at 5 μM for 1 h. Washed, lysed in Ripa buffer containing sample reducing agent, and analyzed by SDS/PAGE and fluorescent gel scanning using a Typhoon scanner 9500 (GE Healthcare) (Ex, 532 nm; Em, 555 nm). The gel was then blotted and total Btk levels detected by standard Western blot with Btk antibody (CST).

## C=CC(=O)N1CCC[C@@H](n2nc(-c3ccc(Oc4cccc(OC)c4Cl)cc3)c3cncc(OCCC)c32)C1 [Example 83, (R)-1-(3-(3-(4-(2-chloro-3-methoxyphenoxy)phenyl)-7-propoxy-1H-pyrazolo[4,3-c]pyridin-1-yl)piperidin-1-yl)prop-2-en-1-one]
  concentration sufficient to fully occupy the active site of Btk: 50 nM
